Patent publication US7915223B2, “Antimicrobial agents” (priority 2004, dated 2011)
Part of at least one peptide drawing is inferred or uncertain, most often the ends. Ends that are not written are not given here.

Experiment: Hydrophobicity estimation by reversed-phase HPLC (percent acetonitrile at elution)
Format: physicochemical
Settings: percent of acetonitrile at which the polymer was eluted on reversed-phase C18 HPLC
Procedure: HPLC chromatograms were performed on C18 columns (Vydak, 250 mm×4.6 or 10 mm) using a linear gradient of acetonitrile in water (1% per minute), both solvents contained 0.1% trifluoroacetic acid. The purified polymers were subjected to mass spectrometry (ZQ Waters) to confirm their composition and stored as a lyophilized powder at −20° C. Prior to being tested, fresh solutions were prepared in water, mixed by vortex, solubilized by ultrasound, centrifuged and then diluted in the appropriate medium.
In order to estimate the hydrophobicity of each polymer, the polymer was eluted with a linear gradient of acetonitrile (1% per minute) on an HPLC reversed-phase C18 column, and the percent of acetonitrile at which the polymer was eluted was used for hydrophobicity estimation (see, “ACN (%)” in Table 3 below).

Compound | ACN (%)
GIGKFLKKAKKFGKAFVKILKK-NH2 [MSI-78] | 44
CC[C@H](C)[C@H](NC(=O)[C@H](CCCCN)NC(=O)[C@H](CCC(=O)O)NC(=O)[C@H](CCCCN)NC(=O)[C@H](CO)NC(=O)[C@H](CCCCN)NC(=O)[C@H](CCCNC(=N)N)NC(=O)[C@H](Cc1ccccc1)NC(=O)[C@H](Cc1ccccc1)NC(=O)[C@H](CC(=O)O)NC(=O)CNC(=O)[C@H](CC(C)C)NC(=O)[C@@H](N)CC(C)C)C(=O)NCC(=O)N[C@@H](CCCCN)C(=O)N[C@@H](CCC(=O)O)C(=O)N[C@@H](Cc1ccccc1)C(=O)N[C@@H](CCCCN)C(=O)N[C@@H](CCCNC(=N)N)C(=O)N[C@H](C(=O)N[C@H](C(=O)N[C@@H](CCC(N)=O)C(=O)N[C@@H](CCCNC(=N)N)C(=O)N[C@H](C(=O)N[C@@H](CCCCN)C(=O)N[C@@H](CC(=O)O)C(=O)N[C@@H](Cc1ccccc1)C(=O)N[C@@H](CC(C)C)C(=O)N[C@@H](CCCNC(=N)N)C(=O)N[C@@H](CC(N)=O)C(=O)N[C@@H](CC(C)C)C(=O)N[C@H](C(=O)N1CCC[C@H]1C(=O)N[C@@H](CCCNC(=N)N)C(=O)N[C@H](C(=O)N[C@@H](CCC(=O)O)C(=O)N[C@@H](CO)C(=O)O)[C@@H](C)O)C(C)C)[C@@H](C)CC)C(C)C)[C@@H](C)CC [LL37] | 61
